PubChem BioAssay AID743121, NCATS | 2013
Screen: 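Partners whose loss is lethal together with topoisomerase I blockade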 (primary screen). System: MDA-MB-231 cells, a human breast cancer line. Knock-down reagent: single siRNA against human genes, 20 nM siRNA (0.8 pmol per well). Time to read-out: 120 h (drug added 48 h after transfection, read 72 h later). Treatment: camptothecin 20 nM (about EC30) for 72 h; vehicle 0.1% DMSO in parallel plates. Read-out: 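CellTiter-Glo ATP signal, scaled to control siRNA as percent viability; sensitisation given as log2 of untreated divided by camptothecin-treated viability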. Direction: log2 vehicle/camptothecin viability: higher = stronger sensitisation to camptothecin; viability with camptothecin and viability without drug: higher = more viable cells. Active means: 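Each gene scored by redundant siRNA activity (RSA) over its individual siRNA ratios; a gene is called active at p < 0.001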.
In all, the deposit lists about 26,000 reagents; below is an unselected part. Over the whole deposit, 167 (0.63%) are marked active. 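Calls are per gene from RSA p-values that are not deposited; an individual active-marked siRNA can sensitise only weakly.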 Reagents against one gene are numbered here. Reagent sequences are not shown.

no.	gene	reagent no.	log2 vehicle/camptothecin viability	viability with camptothecin (% of control)	viability without drug (% of control)	Outcome
1	COL4A3 (collagen type IV alpha 3 chain)	1	-0.0591	66.4	63.8	inactive
2	COL4A3 (collagen type IV alpha 3 chain)	2	-0.246	83.1	70	inactive
3	COL4A3 (collagen type IV alpha 3 chain)	3	-0.0818	85.8	81	inactive
4	COL4A3 (collagen type IV alpha 3 chain)	4	-0.36	63.4	49.4	inactive
5	PTCH2 (patched 2)	1	-0.165	107	95	inactive
6	PTCH2 (patched 2)	2	1.37	25.2	65.1	inactive
7	PTCH2 (patched 2)	3	0.283	67.9	82.6	inactive
8	PTCH2 (patched 2)	4	0.614	38.8	59.3	inactive
9	EXT2 (exostosin glycosyltransferase 2)	1	-0.332	52.6	41.7	inactive
10	EXT2 (exostosin glycosyltransferase 2)	2	-0.25	69.4	58.3	inactive
11	EXT2 (exostosin glycosyltransferase 2)	3	-0.253	102	85.4	inactive
12	EXT2 (exostosin glycosyltransferase 2)	4	0.307	88.3	109	inactive
13	ADAMDEC1 (ADAM like decysin 1)	1	-0.265	84.4	70.2	inactive
14	ADAMDEC1 (ADAM like decysin 1)	2	-0.547	61.1	41.8	inactive
15	ADAMDEC1 (ADAM like decysin 1)	3	0.245	84.7	100	inactive
16	PPFIA4 (PPFI scaffold protein A4)	1	-0.294	91.7	74.8	inactive
17	PPFIA4 (PPFI scaffold protein A4)	2	-0.328	84	66.9	inactive
18	PPFIA4 (PPFI scaffold protein A4)	3	0.0784	51.5	54.4	inactive
19	PPFIA4 (PPFI scaffold protein A4)	4	-0.678	54.3	33.9	inactive
20	CARS2 (cysteinyl-tRNA synthetase 2, mitochondrial)	1	-0.453	66	48.2	inactive
21	CARS2 (cysteinyl-tRNA synthetase 2, mitochondrial)	2	0.0206	65.8	66.7	inactive
22	CARS2 (cysteinyl-tRNA synthetase 2, mitochondrial)	3	-0.191	99.7	87.4	inactive
23	CARS2 (cysteinyl-tRNA synthetase 2, mitochondrial)	4	-0.118	99.1	91.3	inactive
24	RAD17 (RAD17 checkpoint clamp loader component)	1	-0.165	90.8	81	inactive
25	RAD17 (RAD17 checkpoint clamp loader component)	2	-0.272	90.4	74.9	inactive
26	RAD17 (RAD17 checkpoint clamp loader component)	3	-0.445	98.1	72.1	inactive
27	RAD17 (RAD17 checkpoint clamp loader component)	4	0.162	78	87.2	inactive
28	SPRYD3 (SPRY domain containing 3)	1	-0.172	56.2	49.9	inactive
29	SPRYD3 (SPRY domain containing 3)	2	-0.0955	59.1	55.3	inactive
30	SPRYD3 (SPRY domain containing 3)	3	0.265	71.4	85.7	inactive
31	SPRYD3 (SPRY domain containing 3)	4	0.309	89.1	110	inactive

2 of these entries, set out differently:
{"gene":"PPFIA4 (PPFI scaffold protein A4)","reagent no.":3,"log2 vehicle/camptothecin viability":0.0784,"viability with camptothecin (% of control)":51.5,"viability without drug (% of control)":54.4,"Outcome":"inactive"}
{"gene":"PPFIA4 (PPFI scaffold protein A4)","reagent no.":4,"log2 vehicle/camptothecin viability":-0.678,"viability with camptothecin (% of control)":54.3,"viability without drug (% of control)":33.9,"Outcome":"inactive"}
